No constants are given. Whether binding was seen depends on the method and setting. Binding can be weak; no strength is given. Sequences can lack the tags named with a protein.
Legend:
[1] = biological target: human plasma fibronectin (human); assay: ELISA; plates coated with 100 nM ECM protein in PBS; PDGF-BB or IL-1Ra variants at increasing concentrations in PBS-T with 0.1% BSA, 1 h at room temperature; detected with biotinylated antibodies; KD from a one site specific binding model; both purified
human fibrinogen (human) = assay: as above

- binding [1]: binds
- binding (human fibrinogen (human)): binds
B1: interleukin-1 receptor antagonist (IL-1Ra), wild type (ligand, UniProt P25085 27-178)
chain: RPSGKRPCKMQAFRIWDTNQKTFYLRNNQLIAGYLQGPNIKLEEKIDMVPIDLHSVFLGIHGGKLCLSCAKSGDDIKLQLEEVNITDLSKNKEEDKRFTFIRSEKGPTTSFESAACPGWFLCTTLEADRPVSLTNTPEEPLIVTKFYFQEDQ

— article PMC10202959
